# These are yes or no findings as the source states them, for the method shown. A result given as binding can be weak or reduced; the word gives no strength.
# Biological target: cynomolgus PTK7 (cynomolgus)
# Assay: ForteBio, concentration series of recombinant monomeric antigen
row,Binder,binding
1,"SC6.23 (antibody, V domains shown) VH: QVTLKESGPGILKPSQTLSLTCSFSGFSLSTSNMGVGWIRQPSGKGLEWLAHIWWDDDKYYNPSLKSQLTISKDTSRNQVFLKITSVDTEDTATYYCVRSNYGYAWFAYWGQGTLVTVSA VL: DIKMTQSPSSMYASLGERVTITCKASQDIYPYLNWFQQKPGKSPKTLIYRTNRLLDGVPSRFSGSGSGQDYSLTISSLDYEDMGIYYCLQYDEFPLTFGAGTKLELK",binds
2,"SC6.2.35 (antibody, V domains shown) VH: QVQMQQSGAELMKPGASVKLSCKATGYTFTGYWIEWVKQRPGHGLEWIGEILPGSGRSNSNEKFKGKATFTADTSSNTAYMQLSSLTTEDSAIYYCARGKLSWGQGTLVTVSA VL: DIVLTQSPASLAVSLGQRATISCRASESVDSFGNSFMHWYQQKPGQPPKLLIYAASNLGSGVPARFSGSGSGTDFSLNIHPVEEDDSAMYFCQQSKEVPRTFGGGSRLEIKR",binds
3,"SC6.21 (antibody, V domains shown) VH: DVQLQESGPGLVKPSQTLSLTCSVPDYSITSDYHWHWIRQFPGNKLEWMGYISSRGSTNYNPSLKNRISITHDTSENQFFLKLTSVTTEDSATYYCAGLSQLALDYWGQGTTLTVSS VL: DIVMSQSPSSLAVSVGEKVTLSCKSSQSLLYSSTQNNYLAWYQQTPGQSPKLLIYWASTRESGVPDRFTGSGSGTDFTLTISSVKAEDLAVYYCQQYYSYPWTFGGGTKLEIK",binds
4,"SC6.24 (antibody, V domains shown) VH: QVQLQQSGPEVVRPGVSVKISCKGSGYTFTDYAVHWVKLSHAKSLEWIGVISTYNDYTYNNQDFKGKATMTVDKSSSTAYMELARLTSEDSAIYYCARGNSYFYALDYWGQGTSVTVSS VL: DIVLTQSPASLAVSLGQRATISCRASESVDSYGKSFMHWYQQRPGQPPKLLIYRASNLESGIPARFSGSGSRTDFTLTINPVEADDVATYYCQQSNEDPWTFGGGTKLEIK",binds

# More lines, now with the values ahead:
row,binding,Binder
1,binds,"SC6.41 (antibody, V domains shown) VH: EVQLQQSGAESVRSGASVKLSCTASGLNIKDYYMHWVNLRPEQGLEWIGWIDPENGDTEYAPEFQGKATMTADTSSNTAYLQLSSLTSEDTAVYYCNACNYGSAYGYWGQGTTLTVSS VL: DIVLTQATPSVPVTPGESVSISCRSSKSLLHTKGDTYLYWFLQRPGQSPQLLIYRMSNLASGVPDRFSGSGSGTVFTLRISRVEAEDVGVYYCMQHLEYPFTFGSGTKLEIKR"
2,binds,"SC6.58 (antibody, V domains shown) VH: EVKLLESGGGLVQPGGSLKLSCAASGFDFSRYWMSWVRQAPGKGLEWIGDLNPDSSAINYTPSLKDKFIISRDNAKNTLYLQMSKVRSEDTALYYCTLITTLVPYTMDFWGQGTSVTVSS VL: ETTVTQSPASLSMAIGEKVTIRCITNTDIDDDMNWYQQKPGEPPKLLISEGNGLRPGVPSRFSSSGYGTDFVFTIENMLSEDVADYYCLQSDNLPLTFGSGTKLEIK"

# From US20180162952A1
